# Literature values, collected in PMC8983078 (Drug Discovery Today, 2022).
# How the values were obtained:
# [1] = patient with long-term administration of a daily low dose; cited from earlier work
# [2] = rats; might be linked to the induction of PLD; cited from earlier work
smiles,measurement,setting,value
CCCCc1oc2ccccc2c1C(=O)c1cc(I)c(OCCN(CC)CC)c(I)c1 [amiodarone],liver toxicity,[1],induce liver cirrhosis accompanying PLD
same,pulmonary toxicity,[2],pulmonary toxicity
